Experimental data: PubChem BioAssay AID1053208 (Peter MacCallum Cancer Centre, 2014)
Purpose: 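Find knock-downs that sensitise mouse osteosarcoma cells to doxorubicin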 (primary screen). Cell system: mouse osteosarcoma cells, early-passage culture from an engineered mouse model of fibroblastic bone tumour. Reagents: siRNA pool against mouse genes, 40 nM. Time to read-out: about 120 h (48 h before drug, then 72 h with drug). Conditions: doxorubicin 100 nM for 72 h, roughly 30-40% inhibitory dose. Detection: 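Luminescent ATP signal taken as viability with or without 100 nM doxorubicin for 72 h; mean of two wells set against non-targeting siRNA and turned into robust z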. Scale: viability z-score with doxorubicin: higher = more viable cells under doxorubicin; viability z-score without drug: higher = more viable cells with knock-down alone. Hit rule: 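a pool counts as active when its viability z-score with doxorubicin is -2 or below and its z-score without drug lies between -2 and 2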.
This is one part, drawn at random, of about 17,000 reagents tested. 788 of all reagents (4.7%) count as active. 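Calls rest on z-score classes alone; an extra cut-off of viability at most 70% of control was not applied to them.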 Further read-outs or replicates are left out here.

gene | combined z-score class | viability z-score with doxorubicin | viability z-score without drug | activity call
Gbx2 | no change with or without drug | -0.22 | -0.67 | inactive
Hdhd5 | no change with or without drug | -1.8 | 0 | inactive
Adgra1 | no change with or without drug | 0 | -1.85 | inactive
Nfatc2 | no change with or without drug | 1.35 | 0.84 | inactive
Mgat4d | no change with or without drug | -0.45 | 1.52 | inactive
Kif18a | no change with or without drug | 0 | 0 | inactive
Insig1 | high cell count with doxorubicin only | 2.36 | 1.52 | inactive
Crybg1 | high cell count without drug only | 1.35 | 2.53 | inactive
Arhgef11 | no change with or without drug | -1.35 | 0.84 | inactive
Zic1 | no change with or without drug | -0.22 | 1.18 | inactive
Fam187b | low cell count with doxorubicin only | -2.59 | -0.51 | active
Nt5m | no change with or without drug | -0.45 | 0.17 | inactive
Cbln3 | no change with or without drug | -0.67 | 0.51 | inactive

The list goes on; the last 4 above are carried over.
gene | combined z-score class | viability z-score with doxorubicin | viability z-score without drug | activity call
Zic1 | no change with or without drug | -0.22 | 1.18 | inactive
Fam187b | low cell count with doxorubicin only | -2.59 | -0.51 | active
Nt5m | no change with or without drug | -0.45 | 0.17 | inactive
Cbln3 | no change with or without drug | -0.67 | 0.51 | inactive
Cts7 | no change with or without drug | -0.11 | 0.17 | inactive
Myoz3 | no change with or without drug | 0.56 | 0.17 | inactive
Dennd10 | no change with or without drug | -0.34 | 0.67 | inactive
Gpr139 | no change with or without drug | 0.56 | 1.01 | inactive
TEX10 | low cell count with doxorubicin only | -4.16 | -0.51 | active
Bad | high cell count with doxorubicin only | 2.02 | 1.85 | inactive
H2bc18 | no change with or without drug | -0.22 | -0.17 | inactive
Piwil4 | no change with or without drug | 0.22 | -0.17 | inactive
Lce1m | no change with or without drug | 1.8 | -0.34 | inactive
Tmem50a | no change with or without drug | 0 | -0.17 | inactive
Tmem176a | no change with or without drug | 0 | 0.84 | inactive
Pik3r2 | no change with or without drug | -0.11 | -1.85 | inactive
Herc3 | no change with or without drug | 0.67 | 1.01 | inactive
Arhgef40 | no change with or without drug | -1.46 | 0.84 | inactive
Rabgap1 | no change with or without drug | 0.56 | -0.84 | inactive
Zfp358 | no change with or without drug | 1.46 | 0.51 | inactive
Iars2 | low cell count with doxorubicin only | -2.36 | -0.84 | active
Tmprss6 | no change with or without drug | 1.69 | 0.51 | inactive
Cxcl3 | low cell count without drug only | -1.01 | -2.19 | inactive
Ccdc7a | high cell count without drug only | -0.67 | 2.53 | inactive
C1d | no change with or without drug | -1.35 | 0.51 | inactive
